PubChem BioAssay AID1259254 – NCATS | 2017
Shown is an unselected part of about 59,000 deposited reagents. Of all reagents, about 1,550 (2.6%) were called active. 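G2 share is only a proxy for re-replication; each gene was hit by three separate siRNAs, and active genes were retested.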 Reagents against one gene are numbered here. Not all columns of the deposit are shown. Not stated in the record: the amount of reagent.

Screen: 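Finding genes that stop cells copying their DNA twice in one cycle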 (primary screen)
Cells: human HCT116 colorectal cancer cells
Reagents: single siRNA against human genes
Time to read-out: 3 days
Measurement: 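Nuclei stained with Hoechst and imaged; cell-cycle phase assigned by DNA content; G2 share scaled per plate, non-targeting siRNA 0%, GMNN siRNA 100%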
Reading the numbers: G2 robust z-score: higher = more G2 cells, more excess DNA replication
Call rule: 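Active siRNAs have a G2 robust z of 5 or more median absolute deviations over the median, which in these data means about 38% or higher of GMNN control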

For TCTA (GeneID 6988) #1, the entry reads G2 robust z-score -0.174; inactive.
TCTA (GeneID 6988) #2 gave G2 robust z-score 0.109; inactive.
After knock-down of TCTA (GeneID 6988) #3, the record shows G2 robust z-score 2.29; inactive.
For OLFML2A (GeneID 169611) #1 the deposit lists G2 robust z-score 0.0516; inactive.
Silencing of OLFML2A (GeneID 169611) #2 resulted in: G2 robust z-score 4.68; inactive.
Silencing of OLFML2A (GeneID 169611) #3 came out at: G2 robust z-score -0.743; inactive.
INPP1 (GeneID 3628) #1 showed G2 robust z-score -0.981; inactive.
INPP1 (GeneID 3628) #2 scored G2 robust z-score -0.464; inactive.
For INPP1 (GeneID 3628) #3 the deposit lists G2 robust z-score -0.14; inactive.
After knock-down of S100A8 (GeneID 6279) #1, the screen gave G2 robust z-score -0.229; inactive.
S100A8 (GeneID 6279) #2 showed G2 robust z-score 0.424; inactive.
Depletion of S100A8 (GeneID 6279) #3 resulted in: G2 robust z-score 3.1; inactive.
Silencing of GRAP2 (GeneID 9402) #1 gave: G2 robust z-score -0.501; inactive.
GRAP2 (GeneID 9402) #2 gave G2 robust z-score -0.558; inactive.
Depletion of GRAP2 (GeneID 9402) #3 gave: G2 robust z-score 7.9; active.
After knock-down of NKAPD1 (GeneID 55216) #1, the record shows G2 robust z-score 0.0767; inactive.
With knock-down of NKAPD1 (GeneID 55216) #2 the results were G2 robust z-score 0.333; inactive.
With knock-down of NKAPD1 (GeneID 55216) #3, the screen gave G2 robust z-score 1.47; inactive.

A stretch from the list above, for reference:
S100A8 (GeneID 6279) #1 — G2 robust z-score = -0.229; activity call = inactive
S100A8 (GeneID 6279) #2 — G2 robust z-score = 0.424; activity call = inactive
S100A8 (GeneID 6279) #3 — G2 robust z-score = 3.1; activity call = inactive

The list goes on.
FERD3L (GeneID 222894) #1 showed G2 robust z-score 1.22; inactive.
FERD3L (GeneID 222894) #2 gave G2 robust z-score -0.843; inactive.
FERD3L (GeneID 222894) #3 showed G2 robust z-score -0.164; inactive.
For EPB41L1 (GeneID 2036) #1, the values are G2 robust z-score -0.0905; inactive.
After knock-down of EPB41L1 (GeneID 2036) #2, the record shows G2 robust z-score 0.726; inactive.
Depletion of EPB41L1 (GeneID 2036) #3 gave: G2 robust z-score -0.57; inactive.
AIM2 (GeneID 9447) #1 showed G2 robust z-score 0.198; inactive.
AIM2 (GeneID 9447) #2 gave G2 robust z-score 0.0891; inactive.
Against AIM2 (GeneID 9447) #3, the entry reads G2 robust z-score 0.071; inactive.
After knock-down of MTNR1B (GeneID 4544) #1, the screen gave G2 robust z-score 2.6; inactive.
Knock-down of MTNR1B (GeneID 4544) #2 gave: G2 robust z-score -0.579; inactive.
MTNR1B (GeneID 4544) #3 scored G2 robust z-score -0.345; inactive.
